Assay [1] concerns the target wild-type ATF4 fused with FLAG (UniProt P18848). The assay can be described thus: co-IP; DPSCs transfected with FLAG-fused wild-type ATF4 or the 280-299 deletion mutant; co-precipitated endogenous KPNB1 detected by western blot. In general terms: A western blot detects proteins with antibodies after separation by electrophoresis.
Assay [2] concerns the target Activating transcription factor 4 (human (endogenous in DPSCs)) (UniProt P18848). The experiment in a line: co-IP; endogenous proteins of DPSC lysate (1 mg); primary antibody or isotype control IgG cross-linked to protein A/G magnetic beads (Pierce Crosslink Magnetic IP/Co-IP Kit), overnight at 4 °C; western blot; cells in control medium or odontoblastic medium (OM) for 3 days.

Amino acid sequences for entries named in this document (tags omitted).
UniProt P18848: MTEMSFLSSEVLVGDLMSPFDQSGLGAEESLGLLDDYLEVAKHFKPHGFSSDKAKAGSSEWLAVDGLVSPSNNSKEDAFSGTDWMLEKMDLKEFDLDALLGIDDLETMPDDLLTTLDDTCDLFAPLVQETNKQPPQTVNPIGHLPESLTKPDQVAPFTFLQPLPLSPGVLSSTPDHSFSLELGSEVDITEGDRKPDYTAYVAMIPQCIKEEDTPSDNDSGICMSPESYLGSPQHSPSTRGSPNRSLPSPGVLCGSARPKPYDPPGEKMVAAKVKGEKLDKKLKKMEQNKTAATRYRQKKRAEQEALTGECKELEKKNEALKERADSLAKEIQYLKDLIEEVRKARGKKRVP
UniProt Q14974: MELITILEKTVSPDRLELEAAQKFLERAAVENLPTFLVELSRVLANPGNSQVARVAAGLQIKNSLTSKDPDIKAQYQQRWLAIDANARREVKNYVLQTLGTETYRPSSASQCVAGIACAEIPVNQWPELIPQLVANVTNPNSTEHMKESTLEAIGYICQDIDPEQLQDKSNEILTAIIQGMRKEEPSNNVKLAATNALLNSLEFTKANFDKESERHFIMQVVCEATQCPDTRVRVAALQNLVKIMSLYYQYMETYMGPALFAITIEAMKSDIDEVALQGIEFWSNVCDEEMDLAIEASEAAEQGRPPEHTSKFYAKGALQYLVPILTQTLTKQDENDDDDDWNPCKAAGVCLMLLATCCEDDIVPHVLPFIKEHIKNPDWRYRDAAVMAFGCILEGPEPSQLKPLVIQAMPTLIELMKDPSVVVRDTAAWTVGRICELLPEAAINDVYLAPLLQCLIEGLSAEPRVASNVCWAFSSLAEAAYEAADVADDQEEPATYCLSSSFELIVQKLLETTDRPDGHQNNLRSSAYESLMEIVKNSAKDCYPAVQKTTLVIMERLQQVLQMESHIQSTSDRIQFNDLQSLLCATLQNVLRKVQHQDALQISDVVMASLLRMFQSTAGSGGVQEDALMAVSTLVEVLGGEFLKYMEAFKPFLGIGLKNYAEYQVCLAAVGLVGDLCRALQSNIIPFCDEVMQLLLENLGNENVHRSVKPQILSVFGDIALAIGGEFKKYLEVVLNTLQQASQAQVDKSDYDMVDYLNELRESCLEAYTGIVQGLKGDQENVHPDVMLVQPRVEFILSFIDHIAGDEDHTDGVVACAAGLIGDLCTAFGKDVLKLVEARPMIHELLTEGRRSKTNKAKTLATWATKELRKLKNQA

Results are given in words; binding and its absence hold for the method and conditions named. Binding seen in cells or lysates may run through a third protein. Some entries that bind do so weakly or less than the wild type.

As for “Importin subunit beta-1 (from UniProt Q14974 1-876)”, the binding entry in assay [1] and in assay [2] was “binds” throughout.

For the origin of these results see paper PMC11600598.
